Source: article PMC10457386
These are yes or no findings as the source states them, for the method shown. Binding seen in cells or lysates may run through a third protein. Binding calls can cover weak binding; strength is not graded here.

Amino acid sequences for entries named in this document (tags omitted). A change or cut given only in a name is not applied to a line headed by its entry. Residues count along the entry.
UniProt P63330: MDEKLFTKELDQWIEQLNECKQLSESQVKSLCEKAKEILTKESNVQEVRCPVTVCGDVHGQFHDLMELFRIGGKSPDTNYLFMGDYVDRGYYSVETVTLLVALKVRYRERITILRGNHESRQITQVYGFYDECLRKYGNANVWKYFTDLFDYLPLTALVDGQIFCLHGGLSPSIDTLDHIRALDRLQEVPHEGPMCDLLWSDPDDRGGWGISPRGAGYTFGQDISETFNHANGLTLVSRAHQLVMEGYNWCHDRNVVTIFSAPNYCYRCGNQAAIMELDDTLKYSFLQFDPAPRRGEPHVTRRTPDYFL
UniProt P09103, residues 20-509: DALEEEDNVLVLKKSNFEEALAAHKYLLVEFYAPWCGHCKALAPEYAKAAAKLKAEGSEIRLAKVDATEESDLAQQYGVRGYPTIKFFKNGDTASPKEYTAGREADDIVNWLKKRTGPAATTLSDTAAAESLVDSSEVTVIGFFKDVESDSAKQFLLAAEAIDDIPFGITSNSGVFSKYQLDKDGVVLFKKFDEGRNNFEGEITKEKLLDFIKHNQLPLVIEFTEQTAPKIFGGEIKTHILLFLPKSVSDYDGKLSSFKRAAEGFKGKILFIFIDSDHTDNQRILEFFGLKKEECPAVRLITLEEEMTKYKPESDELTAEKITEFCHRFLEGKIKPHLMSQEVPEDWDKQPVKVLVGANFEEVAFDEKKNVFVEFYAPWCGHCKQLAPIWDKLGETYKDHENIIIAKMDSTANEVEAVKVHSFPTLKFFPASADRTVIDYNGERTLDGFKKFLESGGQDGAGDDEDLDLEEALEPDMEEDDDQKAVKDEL

Molecular target: Protein phosphatase 2A (mouse (endogenous in hippocampus)) (UniProt P63330)
Assay: co-IP; mouse hippocampus lysed in RIPA with protease and phosphatase inhibitors and 1 mM sodium orthovanadate; 150 ug protein precipitated with PDI, PP1, PP2A or PICK1 antibody, protein G sepharose, 4 °C overnight; Western blot; animals infused with control siRNA or PDI siRNA, given saline or kainic acid (25 mg/kg, i.p.)

Protein disulfide isomerase (from UniProt P09103 20-509) (enzyme)
binding: binds
